Laboratory results: patent US20170319690A1 (AGENCY FOR SCIENCE TECHNOLOGY AND RESEARCH, published 2017)
These are yes or no findings as the source states them, for the method shown.

Assays:
[1] = molecular target: human Fc (the Fc part coupled to PD-L1) (human); test: ELISA, antigen coated, Fab detected with anti-human Fab-HRP
[2] = molecular target: human Fc (the Fc part coupled to PD-L1) (human); test: ELISA; plate coated with human Fc, Fab added (concentration not given), goat anti-human Fab-HRP/TMB, absorbance 450-670 nm

B1: anti-PD-L1 antibody clone A1, Fab format (Fab, V domains shown)
VH: QVQLQQSGAEVKKPGSSVKVSCKASGGTFSSYAISWVRQAPGQGLEWMGRIIPILGIANYAQKFQGRVTITADKSTSTAYMELSSLRSEDTAVYYCARGGSYGSLYAFDIWGQGTMVTVSS
VL: QSVLTQPPSVSAAPGQRVSISCSGRSSNIASHDVFWYQQLPGTAPKIVMYETNKRPWGIPDRFSGSKSGTSATLDIAGLQTGDEADYYCGAWDSGLTGMLFGGGTKVTVL
notes: Human Fab from a phage display library
**Q.** With B1 as the binder, how does the binding [1] read?
**A.** The binding was “no binding”.

**Q.** And the binding [2]?
**A.** Its binding is “no binding”.

B2: anti-PD-L1 antibody clone C2, Fab format (Fab, V domains shown)
VH: QVQLQQSGAEVKKPGSSVKVSCKASGGTFSSYAISWVRQAPGQGLEWMGRIIPILGIANYAQKFQGRVTITADKSTSTAYMELSSLRSEDTAVYYCARGGSYGSLYAFDIWGQGTTVTVSS
VL: SYELTQPPSVSVAPGKTTRITCGGDNIGRKSVHWYQQRPGQAPLLLVYDDGDRPSGIPDRFSGSNSGNTATLTISGTQAMDEADYYCQAWDSTVVFGGGTRLTVL
notes: as for B1
**Q.** Which binding [1] does the source give for B2 here?
**A.** Its binding is “no binding”.

**Q.** And the binding [2]?
**A.** Its binding is “no binding”.

B3: anti-PD-L1 antibody clone C4, Fab format (Fab, V domains shown)
VH: QVQLQQSGAEVKKPGSSVKVSCKASGGTFSSYAISWVRQAPGQGLEWMGRIIPILGIANYAQKFQGRVTITADKSTSTAYMELSSLRSEDTAVYYCARGGYGGNSLYAFDIWGQGTMVTVSS
VL: QSVVTQPPSVSAAPGQKVTISCSGSSSNIGNNYVSWYQQLPGTAPKLLIYDNNERLSGIPDRFSGSKSGTSATLGISGLQTGDEADYYCGTWDSSLSVVVFGGGTKLTVL
**Q.** Which results are given for B3?
**A.** binding [1]: no binding; binding [2]: no binding

B4: anti-PD-L1 antibody clone H12, Fab format (Fab, V domains shown)
VH: EVQLVQSGAEVKKPGASVKVSCKASGGTFSSYAISWVRQAPGQGLEWMGRIIPILGIANYAQKFQGRVTITADKSTSTAYMELSSLRSEDTAVYYCARSGHGYSYGAFDYWGQGTL
VL: QSVLTQPPSVSGAPGQRVTISCTGSSSNIGAGYDVHWYQQLPGTAPKLLIYGNSNRPSGVPDRFSGSKSGTSASLAITGLQAEDEADYYCQSYDSSLSGSYVVFGGGTKLTVL
**Q.** With B4 as the binder, how does the binding [1] read?
**A.** Its binding is “no binding”.

**Q.** And the binding [2]?
**A.** Its binding is “no binding”.
